Values from PubChem BioAssay AID1224826 (NIAID, 2016)
The whole screen tested about 17,000 reagents; this is an unselected part. About 1,110 of all reagents (6.6%) were called active. 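Active means lowered or raised reporter signal; replicate intensities are raw and not normalised per plate.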 Entries without a mark were called inactive. Reagents against one gene are numbered here. Some reagents were tested in more than one well and are listed for each.

Test: 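Regulators of Tlr4 signalling leading to Tnf-alpha expression in macrophages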 (primary screen)
System: RAW264.7 G9 macrophages from mouse bearing reporters for p65 (GFP) and the Tnf promoter (mCherry)
Knock-down reagent: siRNA pool against mouse genes, 100 nM
Timing: 16 h of LPS stimulation, after 2 days of siRNA transfection
Conditions: bacterial lipopolysaccharide (Salmonella minnesota R595), 10 ng/ml
Read-out: 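Imaged Tnf reporter mCherry in nuclei, minus background, normalised per plate to the median and expressed as robust z-scores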
Direction: Tnf reporter robust z-score: higher = stronger Tnf promoter reporter signal after LPS; Tnf reporter intensity: higher = stronger Tnf promoter reporter signal
Call rule: 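Called active when robust z-score is at most -1.3, matching the median of the Tlr4 knock-down control, or over 3; control wells and wells with under 50 cells never active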
Meaning of the calls: active = Tnf reporter clearly lowered or raised; inactive = no clear change in Tnf reporter

gene	reagent no.	Tnf reporter robust z-score	fewer than 50 cells in well	Tnf reporter intensity, replicate 1	Tnf reporter intensity, replicate 2
Tcp10b	1		fewer than 50 cells per well; well left out of calls	136	57.1
Mmp7	1	-0.07	enough cells in well	277	185
Ubqln1	1	0.55	enough cells in well	219	336
Rrp1	1	1.06	enough cells in well	267	194
Rabgap1	1	1.65	enough cells in well	195	209
Cwc15	1	-0.58	enough cells in well	229	49.9
Cdc42se1	1	0.39	enough cells in well	279	274
Ptcd3	1	1.63	enough cells in well	264	97.4
Onecut3	1		fewer than 50 cells per well; well left out of calls	9.96	30.4
Ca4	1	1.39	enough cells in well	233	270
Herc2	1	0.83	enough cells in well	309	236
Nudt18	1	-0.18	enough cells in well	168	225
Fuca2	1	-0.61	enough cells in well	95.2	159
Or52z1	1	0.01	enough cells in well	104	112
Tac2	1	-1.58 (active)	enough cells in well	113	61.9
Trim33	1	-0.19	enough cells in well	199	233
Trim50	1	1.82	enough cells in well	196	140
Pcyox1	1	2.24	enough cells in well	298	196
Sdcbp2	1	0.99	enough cells in well	183	158
Srrm1	1	-1.16	enough cells in well	72.8	49.8
Cpsf2	1		fewer than 50 cells per well; well left out of calls	174	206
Il2ra	1	-0.82	enough cells in well	179	105
Dennd4a	1	1.29	enough cells in well	203	287
Dennd4a	2	0.58	enough cells in well	251	193
Arsj	1	-0.33	enough cells in well	107	160
Cfap65	1	0.63	enough cells in well	238	170
Arhgef12	1	-1.57 (active)	enough cells in well	81.2	162
Ceacam13	1	0.02	enough cells in well	163	181
Asah2	1	0.93	enough cells in well	283	159
Or6c35	1		fewer than 50 cells per well; well left out of calls	114	89.8
Or5b12	1	0.42	enough cells in well	204	139
Bdkrb2	1	0.23	enough cells in well	227	157
Bdkrb2	1	0.71	enough cells in well	265	368
Pdha1	1	0.03	enough cells in well	253	176
Ermard	1	0.46	enough cells in well	217	170
Ermard	2	0.19	enough cells in well	264	62.7
Sptlc2	1	0.28	enough cells in well	100	117
Col11a1	1	0.6	enough cells in well	273	272
Ppat	1	0.06	enough cells in well	284	167
Mr1	1	0.65	enough cells in well	235	152
Phf12	1	0.7	enough cells in well	153	192
9130019P16Rik	1	-0.67	enough cells in well	164	99.6
Anapc2	1	-0.2	enough cells in well	150	166
Ska3	1	-0.17	enough cells in well	240	190
Or5h24-ps1	1	-0.23	enough cells in well	188	96.1
Sox9	1	0.52	enough cells in well	323	97.9
Tspan8	1	-0.34	enough cells in well	104	82.4
Hsd17b11	1	0.73	enough cells in well	258	288
C1rl	1	2.02	enough cells in well	212	237
Map3k3	1	-0.94	enough cells in well	134	107
Brd10	1	1.33	enough cells in well	293	240
Igf2r	1	-0.03	enough cells in well	245	178
Homer3	1	-0.41	enough cells in well	266	104
Hcrtr1	1	0.41	enough cells in well	251	232
Rnf227	1	-0.67	enough cells in well	127	124
Nqo1	1	-0.83	enough cells in well	196	114
Rad54l	1	0.02	enough cells in well	301	213
Dnmt1	1	-0.08	enough cells in well	247	179

Just “fewer than 50 cells in well” (9 entries from above):
Trim33: enough cells in well
Trim50: enough cells in well
Pcyox1: enough cells in well
Sdcbp2: enough cells in well
Srrm1: enough cells in well
Cpsf2: fewer than 50 cells per well; well left out of calls
Il2ra: enough cells in well
Dennd4a #1: enough cells in well
Dennd4a #2: enough cells in well
